# According to PubChem BioAssay AID1259415 (National Center for Advancing Translational Sciences (NCATS), 2018):
# Hit rate of the full screen: of about 410,000 compounds, about 18,000 (4.4%) were called active. The shares of active, inactive and inconclusive entries below differ from those in the screen. No stated cut-off is given here; in the data, active means activity change below about -60%; inconclusive means no clear call, values can overlap the other calls; inactive means above about -39%.
# Experiment: qHTS Assay for inhibitors of the human cytomegalovirus (HCMV)
# Details: HFF cells, HCMV-luciferase reporter, 72 h; at 57.5 µM; hits give low values
# Method in brief: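 Luciferase read-out from HCMV-luciferase-infected HFFs (MOI 1 PFU/cell) 72 h post infection at 37C; compounds added after 16 h cell attachment; activity normalized between buffer-only basal and Salinomycin (10uM) inhibitor controls.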
# On the % scale 0 is the no-effect control and ±100 the full control effect.
row,SMILES,"activity change, negative = inhibition"
1,CCNC(=O)C1CCCN(c2nn3cc(-c4ccc(C)cc4)nc3s2)C1 (centres undefined),inconclusive: 0%
2,COc1cc(-c2cnc3c(NC=O)cc(-c4ccc(C)cc4)cn23)cc(OC)c1OC,active: -76.1%
3,CCN(CC)S(=O)(=O)c1ccc2c(c1)N(CC(=O)NCCCN1CCN(c3cc(C)ccc3C)CC1)C(=O)CO2,active: -99.5%
4,C=CCn1c(SCc2cc(=O)n3cc(C)ccc3n2)nnc1-c1cccc(C)c1,inconclusive: -47.7%
5,COc1ccc(Cn2cc(CN3CCc4onc(-c5ccc(Br)cc5)c4C3=O)nn2)cc1,inconclusive: -50.1%
6,CN1CCN(C2(CNC(=O)COc3ccc(C(C)(C)C)cc3)CCCCC2)CC1,inconclusive: -50.7%
7,OC(CC#CCN1CCCCCC1)(c1ccccc1)C1CCCC1 (centres undefined),inactive: -34%
8,CSCCC(NC(=O)COc1ccccc1)C(=O)O (centres undefined),inactive: 6.69%
9,Cn1ncc2c(=O)[nH]cnc21,inconclusive: -42.1%
10,Cc1cnc(C(=O)OC(C)C(=O)Nc2ccccc2-c2ccccc2)cn1 (centres undefined),inconclusive: -40.9%
11,CSCCC(NS(=O)(=O)c1ccc(C)cc1)C(=O)N1CCN(C(C)=O)CC1 (centres undefined),inconclusive: -40.7%
12,O=C(CSc1nccn1-c1ccc(F)cc1)Nc1cccc2ccccc12,inconclusive: -41.1%
13,CCN(CC)c1nc(Oc2ccc(C(=O)NN)cc2)nc(Oc2ccc(C(=O)NN)cc2)n1,inconclusive: -48.1%
14,Cc1cccc(NC(c2ccc(C)s2)c2ccc3ccc(C)nc3c2O)n1 (centres undefined),active: -94.7%
15,O=C(CCNc1cccc(F)c1)c1cc2ccccc2o1,inconclusive: -52.2%
16,COc1cccc(NC(=O)C2CCN(S(=O)(=O)c3c(C)noc3/C=C/c3cccs3)CC2)c1,inconclusive: -58.1%
17,COc1ccc(/C=C/c2c([N+](=O)[O-])c(=O)n(C)c(=O)n2C)cc1O,active: -103%
18,Nc1nc(CSc2ccccn2)nc(Nc2ccccc2)n1,inactive: 72.3%
19,Cc1ccc(-n2nnnc2SCC(=O)NCC2(N3CCOCC3)CCCCC2)c(C)c1,inconclusive: -42.7%
20,O=C(Nc1ccc(Cl)cc1)Nc1nc(-c2ccccc2)cs1,inconclusive: -57.9%
21,COc1ccc(N2CCN(CC(O)COc3ccc(F)cc3)CC2)cc1 (centres undefined),inconclusive: -53.4%
22,COc1ccc(CNc2ncnc3c2c(-c2ccccc2)cn3-c2cccc(C)c2)cc1,inconclusive: -40.2%
23,Nn1c(COc2cccc(Cl)c2)nc2ccccc2c1=O,inactive: 49.8%
24,COc1ccc(NC(=O)c2cc(C)nc3ccccc23)cc1S(=O)(=O)N1CCOCC1,inactive: 25.9%
25,COc1cc(C(=O)NCc2nc(-c3ccc(Cl)cc3)no2)cc(OC)c1OC,inconclusive: -52.2%
26,O=C(O)CCN1CCOCC1,inconclusive: -45.4%
27,Cc1ccc(N2C(=O)CC3(CC4C=CC3C4)C2=O)cc1 (centres undefined),inconclusive: -41.2%

row,SMILES,"activity change, negative = inhibition"
1,COc1ccc(C(=O)N2CCN(c3nc4c(OC)cccc4s3)CC2)cc1OC,active: -84.2%
2,CC(=O)c1ccc(N(C(=O)c2ccco2)C(C(=O)NC2CCCC2)c2cccs2)cc1 (centres undefined),inconclusive: -55.2%
3,O=[N+]([O-])c1cc(/C=N/N/C(=N/c2ccccn2)c2ccccn2)ccc1O,active: -82.7%
4,COc1cccc(-c2nc(CS(=O)(=O)CC(=O)Nc3ccc(C)c(Cl)c3)c(C)o2)c1,inactive: -1.26%
5,C[C@]12C=CC(=O)C=C1C=C[C@@H]1C2CC[C@]2(C)C(=O)CCC12 (some centres undefined),inconclusive: -41.5%
6,O=C(CSc1nnc(-c2ccc(F)cc2)n1-c1ccccc1)NCCN1C(=O)CSC1=O,inconclusive: -51.2%
7,CC1CN(Cc2cc(=O)oc3cc(O)c(Cl)cc23)CC(C)O1 (centres undefined),inconclusive: -40.1%
8,C#CCOCCOCCOCCNc1nc(N2CCN(C(=O)[C@H]([C@@H](C)CC)n3cc(CCCN=C(N)N)nn3)CC2)nc(N2CCN(C(=O)[C@H](CCCCN)n3cc(CCCC)nn3)CC2)n1,inactive: -15.5%
9,CC(C)(C)C(=O)N1CCN(c2ccc([N+](=O)[O-])c(NCC3CCCO3)c2)CC1 (centres undefined),inconclusive: -47.3%
10,CCOc1ccc(-n2c(C)c(C(=O)O)c3cc(OC)ccc32)cc1,inconclusive: -41.2%
11,C=CCn1c(-c2cccc3ccccc23)n[nH]c1=S,inconclusive: -50.6%
12,CCN(CC)S(=O)(=O)c1cc(NC(=S)NC(=O)C2CCCC2)ccc1C,active: -71.9%
13,O=C(CNC(=O)c1ccccc1O)N/N=C/c1cc(Br)ccc1OC(=O)/C=C/c1ccco1,active: -74%
14,O=C(NCCCN1CCN(CCCNC(=O)c2cccc([N+](=O)[O-])c2)CC1)c1cccc([N+](=O)[O-])c1,inactive: -33%
15,Cc1ccc2c(c1)c(=O)c1ccccc1n2CCCC(=O)Nc1ccc(C)c(C)c1,active: -60.5%
16,CC(C)c1ccc(NC(=S)Nc2ccc3cn[nH]c3c2)cc1,inactive: -26.6%
17,COc1ccccc1N(CC(=O)N1CCCCC1)S(=O)(=O)c1ccccc1,inactive: -0.178%
18,COc1ccc(C2=CC(c3ccc(OC)c(OC)c3)c3c(c4ccccc4oc3=O)O2)cc1OC (centres undefined),active: -64.4%
19,COc1ccc(C(C)=O)cc1CSc1nc(NCc2ccccc2)c2ccccc2n1,inconclusive: -54.9%
20,Cc1ccc(C(C)n2cc(C(=O)NCc3ccncc3)nn2)cc1 (centres undefined),inconclusive: -42.4%
21,CCOc1ccc(CNC(=O)c2cccc(NC(=O)C3=C(C)OCCS3)c2)cc1,inconclusive: 0%
22,CC(CNC(=O)c1cc2cc(S(=O)(=O)N3CCCCC3)ccc2n1C)c1ccccc1 (centres undefined),inconclusive: -44.7%
23,CN1CCN(S(=O)(=O)c2ccc(NC(=O)C(C)(C)C)cc2)CC1,active: -108%
24,O=c1[nH]nc(N=Nc2c(O)[nH]c3ccc(F)cc23)c(=O)[nH]1,inactive: -11.9%
25,CCC(C)C(NC(=O)C1CCC(C)CC1)C(=O)Nc1ccc(OC)cc1OC (centres undefined),inconclusive: -51.7%
26,Cc1cc(C)n(-c2nc3ccccc3nc2N2CCN(C(=O)c3ccc(F)cc3)CC2)n1,active: -79.5%
27,O=C(Nc1ccc2c(c1)OCCO2)c1cc2sccc2n1Cc1ccccc1,inconclusive: -46.3%

# Among those listed so far, 6 contain an aryl thioether with sulfur outside any ring.
row,SMILES,"activity change, negative = inhibition"
4,C=CCn1c(SCc2cc(=O)n3cc(C)ccc3n2)nnc1-c1cccc(C)c1,inconclusive: -47.7%
12,O=C(CSc1nccn1-c1ccc(F)cc1)Nc1cccc2ccccc12,inconclusive: -41.1%
18,Nc1nc(CSc2ccccn2)nc(Nc2ccccc2)n1,inactive: 72.3%
19,Cc1ccc(-n2nnnc2SCC(=O)NCC2(N3CCOCC3)CCCCC2)c(C)c1,inconclusive: -42.7%
6,O=C(CSc1nnc(-c2ccc(F)cc2)n1-c1ccccc1)NCCN1C(=O)CSC1=O,inconclusive: -51.2%
19,COc1ccc(C(C)=O)cc1CSc1nc(NCc2ccccc2)c2ccccc2n1,inconclusive: -54.9%

# Fetched one by one from above (2):
row,SMILES,"activity change, negative = inhibition"
22,CC(CNC(=O)c1cc2cc(S(=O)(=O)N3CCCCC3)ccc2n1C)c1ccccc1 (centres undefined),inconclusive: -44.7%
6,O=C(CSc1nnc(-c2ccc(F)cc2)n1-c1ccccc1)NCCN1C(=O)CSC1=O,inconclusive: -51.2%
